From patent publication US20040248255A1
No constants are given. Whether binding was seen depends on the method and setting. Some entries that bind do so weakly or less than the wild type.

Chains of the proteins cited; added tags and fusions are not shown.
UniProt P25090: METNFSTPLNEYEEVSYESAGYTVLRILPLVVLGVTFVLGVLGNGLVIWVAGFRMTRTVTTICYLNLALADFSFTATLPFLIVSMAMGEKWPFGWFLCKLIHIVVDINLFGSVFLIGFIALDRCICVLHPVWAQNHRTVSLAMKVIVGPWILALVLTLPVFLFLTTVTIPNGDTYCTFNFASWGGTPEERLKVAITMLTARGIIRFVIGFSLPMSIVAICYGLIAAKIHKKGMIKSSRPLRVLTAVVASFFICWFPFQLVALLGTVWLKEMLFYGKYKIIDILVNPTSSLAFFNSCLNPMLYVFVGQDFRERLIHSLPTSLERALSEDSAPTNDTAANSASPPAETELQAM

Columns and labels:
[1] = target: formyl peptide receptor like 1 (FPRL1) (UniProt P25090); assay: inferred from [Ca2+]i increase in FPRL1-expressing RBL-2H3 cells and HL60 cells; no direct binding assay
[2] = target: formyl peptide receptor like 1 (FPRL1) (UniProt P25090); assay: inferred from [Ca2+]i increase in FPRL1-expressing RBL-2H3 cells (fura-2); no direct binding assay

Row | binding [1] | binding [2] | Binder
1 | binds | binds | MKYYKM (C-terminal amide (-NH2)) [P21 (MKYYKM-NH2)]
2 | binds | binds | RKYYYM (C-terminal amide (-NH2)) [P18 (RKYYYM-NH2)]
3 | binds | binds | MKYYYM (C-terminal amide (-NH2)) [P24 (MKYYYM-NH2)]
4 | binds | binds | RKYHVM (C-terminal amide (-NH2)) [P14 (RKYHVM-NH2)]
